Screen size: about 360,000 compounds; about 7,500 (2.1%) were called active. Inconclusive results, whose numbers are uncertain, are shown with a selection of clear calls. The call rests on the fitted dose curve; in most records, active means well fitted inhibition curve with a large enough effect; inconclusive means small, poorly fitted or top-dose-only effect, or effect the other way; inactive means flat fitted curve, though single readings scatter. Where the call is inconclusive, the potency comes from a doubtful curve fit.
test: Nrf2 qHTS screen for inhibitors; settings: A549 ARE-Fluc reporter, luciferase luminescence, 18-24 h; series mostly up to 46 µM; further: nearly all actives have a fitted effect of over 60% in size
Summary of the method: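 A549 ARE_Fluc cells (5000/well, 5% FBS OPTI-MEM) pre-incubated 2 h, then treated with compounds 18-24 h at 37C/5% CO2 in concentration-response. CellTiter-Fluor viability read first; BugLite luciferase luminescence after 15 min at room temperature gives Nrf2 activity.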
Potency means the concentration at half of the fitted maximal effect.

Structure (SMILES)	Potency
CC(CN1CCCC1)OC(=O)c1ccc(Cl)cc1Cl (configuration not stated)	inconclusive: 18.4 µM [activator, partial curve, poor fit]
COc1ccc(/C=C2\SC(=Nc3ccccc3OC)NC2=O)cc1	inconclusive: 29.1 µM [activator, single point]
CN(Cc1ccon1)Cc1cn(Cc2ccccc2)nc1-c1ccc2c(c1)OCO2	inconclusive: 7.31 µM [falling, partial curve]
Clc1nc2sccn2c1/C=N/n1cnc2ccccc21	inconclusive: 6.51 µM [activator, single point]
CCOC(=O)Cn1c(=O)c2c(nc3n2CCCCN3c2ccc(C)cc2)n(C)c1=O	inconclusive: 29.1 µM [falling, partial curve, poor fit]
CCOC(=O)c1ccc(Nc2cc(C)nc(-c3ccccc3O)n2)cc1	inconclusive: 4.61 µM [falling, partial curve]
COCC(C)n1c(C)cc(C(=O)COC(=O)c2cc(=O)[nH]c3ccccc23)c1C (configuration not stated)	inconclusive: 0.651 µM [activator, full curve]
COc1cccc2cc(C(=O)Nc3ccc(C)cc3)c(=O)oc12	inconclusive: 2.59 µM [activator, full curve]
CCOc1ccccc1-c1cc(C(=O)N/N=C/c2cccnc2)c2ccccc2n1	inconclusive: 16.4 µM [activator, partial curve, poor fit]
CCNc1nc(NC(C)C)nc(OCCNS(=O)(=O)c2cc(C)ccc2C)n1	inactive
O=[N+]([O-])c1ccc(O)c(-c2cc(C(F)(F)F)nc(-c3ccccc3)n2)c1	inconclusive: 5.17 µM [falling, partial curve, poor fit]
O=C(Nc1ccc(OC(F)(F)F)cc1)N1CCN(c2ccnc3cc(Cl)ccc23)CC1	active: 4.61 µM
Cc1ccc(/C(N)=N/OC(=O)c2ccc(C)cc2Cl)cc1	inconclusive: 0.92 µM [activator, partial curve, poor fit]
CCN(C(=O)COC(=O)c1ccccc1Oc1ccccc1)c1c(N)n(Cc2ccccc2)c(=O)[nH]c1=O	inconclusive: 29.1 µM [falling, single point]
CCCCCCCNC(=O)C1(CC2CC(c3ccccc3)=NO2)CCN(C(=O)c2ccccc2)CC1 (configuration not stated)	inconclusive: 16.4 µM [falling, single point]
CCCCN1CCC2C=CCC(C(=O)O)C2C1=O (configuration not stated)	inactive
Fc1ccc(-c2nc(-c3cccs3)[nH]c2-c2ccc(F)cc2)cc1	inconclusive: 23.1 µM [falling, single point]
Cc1ccc(NS(=O)(=O)c2csc(C(N)=O)c2)cc1C	active: 16.4 µM
O=C(CSc1ncnc2c1cnn2-c1ccccc1)Nc1ccc2c(c1)OCO2	inconclusive: 20.6 µM [falling, partial curve, poor fit]
Cc1cc(NC(=O)COC(=O)c2ccc(NS(=O)(=O)c3ccc(C)c(C)c3)cc2)no1	inconclusive: 29.1 µM [falling, single point]
CCN(c1ccccc1)S(=O)(=O)c1ccc(OC)c(NC(=O)Cn2cnc3c2c(=O)n(C)c(=O)n3C)c1	inactive

Single values from the list:
CCN(C(=O)COC(=O)c1ccccc1Oc1ccccc1)c1c(N)n(Cc2ccccc2)c(=O)[nH]c1=O – Potency: inconclusive: 29.1 µM [falling, single point]
COCC(C)n1c(C)cc(C(=O)COC(=O)c2cc(=O)[nH]c3ccccc23)c1C (configuration not stated) – Potency: inconclusive: 0.651 µM [activator, full curve]

(continued)

Structure (SMILES)	Potency
CC1=NN(C(=O)CCc2ccccc2)C(c2ccccc2)C1 (configuration not stated)	inactive
COc1ccc(/C(N)=N/OC(=O)Cc2ccc(OC)c(OC)c2)cc1	active: 14.6 µM
COc1cc(SC)ccc1C(=O)Nc1ccc2ncccc2c1	inconclusive: 6.51 µM [activator, partial curve]
O=C(Nc1ccccc1)C1CCCN(C(=O)c2ccc(Cl)cc2)C1 (configuration not stated)	inconclusive: 29.1 µM [falling, single point]
N/C(=N\NC(=O)c1ccc(Cl)cc1)c1cnccn1	inconclusive: 29.1 µM [activator, single point]
Cc1ccc(-c2cc(C(=O)OCn3nnc4ccccc4c3=O)c3ccccc3n2)cc1	inconclusive: 18.4 µM [activator, partial curve]
Cn1c(C(=O)N2CCN(c3ncccn3)CC2)cc2c(=O)n(C)c3ccccc3c21	inactive
CC(=O)N1CCN(CC(=O)Nc2ccc([N+](=O)[O-])cc2Br)CC1	inconclusive: 16.4 µM [falling, single point]
CC(=O)Nc1nc2cc3c(cc2s1)OCO3	inconclusive: 11.6 µM [activator, partial curve, poor fit]
NC(=O)c1c(-c2ccc(Cl)cc2Cl)csc1NC(=O)Cc1ccccc1	active: 2.59 µM
O=S(=O)(Nc1ccccc1N1CCCCC1)c1ccc(Cl)s1	inactive
COc1cc(-c2nn3c(Cc4ccccc4)nnc3s2)cc(OC)c1OC	inconclusive: 29.1 µM [falling, single point]
Cc1cc(/C=N/NC(=O)c2cccc([N+](=O)[O-])c2)c(C)n1-c1ccc(Cl)cc1Cl	inconclusive: 29.1 µM [falling, single point]
CCOC(=O)C1=C(N)Oc2cc(O)ccc2C1c1cccc([N+](=O)[O-])c1 (configuration not stated)	inconclusive: 6.51 µM [activator, full curve]
Cc1cc(OCCCCN2C(=O)NC(C)(C)C2=O)ccc1[N+](=O)[O-]	inconclusive: 20.6 µM [falling, single point]
CCc1cccc(NC(=O)C2CCN(c3ncnc4sc(C)c(C)c34)CC2)c1	inconclusive: 29.1 µM [falling, single point]
CCCN1C(C(=O)c2ccccc2)=C(OC(=O)COc2ccc(C)cc2)c2ccccc2S1(=O)=O	active: 18.4 µM
Cc1ccc(NC(=O)CCCn2nc(C)c3c(C)n(-c4ccccc4)nc3c2=O)c(Cl)c1	inconclusive: 29.1 µM [activator, single point]
CC[C@@]1(C(=O)OC)N[C@H](CN(C)C(C)=O)[C@@H]2C(=O)N(C)C(=O)[C@@H]21	inactive
Cc1nc2ccc(NC(=O)COc3ccccc3F)cc2s1	inconclusive: 18.4 µM [activator, single point]
CCOC(=O)c1c(C)[nH]c(-c2csc(C)n2)c1C	inconclusive: 23.1 µM [activator, single point]
